Data reported in publication PMC9271913.

Chains of the proteins cited; added tags and fusions are not shown. Lines headed by an entry give the natural chain unless they say otherwise; changes in a name come on top. Residues count along the entry.
UniProt Q8BJY1: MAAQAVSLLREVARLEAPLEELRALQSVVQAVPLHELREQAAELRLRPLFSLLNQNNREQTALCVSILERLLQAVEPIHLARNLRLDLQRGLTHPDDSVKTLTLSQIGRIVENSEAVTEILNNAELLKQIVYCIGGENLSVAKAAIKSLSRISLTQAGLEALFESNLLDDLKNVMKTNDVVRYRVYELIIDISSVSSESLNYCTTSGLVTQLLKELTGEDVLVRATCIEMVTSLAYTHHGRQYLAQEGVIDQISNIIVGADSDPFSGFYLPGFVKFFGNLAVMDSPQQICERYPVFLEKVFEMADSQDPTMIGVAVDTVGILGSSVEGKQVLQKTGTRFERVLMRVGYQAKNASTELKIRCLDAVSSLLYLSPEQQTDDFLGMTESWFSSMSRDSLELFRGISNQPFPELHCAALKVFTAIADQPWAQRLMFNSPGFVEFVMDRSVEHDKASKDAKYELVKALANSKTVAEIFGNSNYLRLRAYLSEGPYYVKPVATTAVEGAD
UniProt P38647, residues 47-679: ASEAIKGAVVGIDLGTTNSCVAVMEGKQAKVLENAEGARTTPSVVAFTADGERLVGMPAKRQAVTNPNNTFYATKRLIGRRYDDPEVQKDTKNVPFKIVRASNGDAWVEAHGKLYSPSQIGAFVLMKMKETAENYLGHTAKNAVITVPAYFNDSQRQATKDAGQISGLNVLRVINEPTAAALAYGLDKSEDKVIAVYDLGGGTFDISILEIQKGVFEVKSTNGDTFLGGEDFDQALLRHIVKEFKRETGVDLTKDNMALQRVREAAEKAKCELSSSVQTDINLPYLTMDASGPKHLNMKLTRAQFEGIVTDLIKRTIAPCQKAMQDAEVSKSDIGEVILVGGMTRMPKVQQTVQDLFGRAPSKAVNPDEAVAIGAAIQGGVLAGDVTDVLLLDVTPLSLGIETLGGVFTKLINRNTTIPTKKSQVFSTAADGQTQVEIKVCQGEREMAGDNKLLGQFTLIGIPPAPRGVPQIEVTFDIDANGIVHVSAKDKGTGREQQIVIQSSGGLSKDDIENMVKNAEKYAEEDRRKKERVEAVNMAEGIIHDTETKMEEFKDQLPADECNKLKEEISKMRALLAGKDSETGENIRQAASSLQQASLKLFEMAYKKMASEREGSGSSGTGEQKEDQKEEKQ
UniProt Q8BNW9: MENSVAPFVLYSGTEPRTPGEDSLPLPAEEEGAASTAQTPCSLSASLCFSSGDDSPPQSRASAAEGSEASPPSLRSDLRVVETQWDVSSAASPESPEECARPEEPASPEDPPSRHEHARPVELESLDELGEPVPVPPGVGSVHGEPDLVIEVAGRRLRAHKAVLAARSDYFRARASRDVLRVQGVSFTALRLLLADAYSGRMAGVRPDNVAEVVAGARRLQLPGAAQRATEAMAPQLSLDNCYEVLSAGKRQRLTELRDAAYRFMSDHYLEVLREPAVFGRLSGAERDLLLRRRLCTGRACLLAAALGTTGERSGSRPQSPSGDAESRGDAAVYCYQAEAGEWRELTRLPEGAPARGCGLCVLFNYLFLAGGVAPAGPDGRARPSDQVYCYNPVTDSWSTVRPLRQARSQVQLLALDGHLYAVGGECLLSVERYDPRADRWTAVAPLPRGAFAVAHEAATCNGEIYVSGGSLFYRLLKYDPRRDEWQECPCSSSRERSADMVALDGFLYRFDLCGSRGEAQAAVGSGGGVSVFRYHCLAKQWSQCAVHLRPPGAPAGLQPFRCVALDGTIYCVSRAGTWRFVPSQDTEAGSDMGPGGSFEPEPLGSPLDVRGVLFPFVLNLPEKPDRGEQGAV
UniProt Q61879: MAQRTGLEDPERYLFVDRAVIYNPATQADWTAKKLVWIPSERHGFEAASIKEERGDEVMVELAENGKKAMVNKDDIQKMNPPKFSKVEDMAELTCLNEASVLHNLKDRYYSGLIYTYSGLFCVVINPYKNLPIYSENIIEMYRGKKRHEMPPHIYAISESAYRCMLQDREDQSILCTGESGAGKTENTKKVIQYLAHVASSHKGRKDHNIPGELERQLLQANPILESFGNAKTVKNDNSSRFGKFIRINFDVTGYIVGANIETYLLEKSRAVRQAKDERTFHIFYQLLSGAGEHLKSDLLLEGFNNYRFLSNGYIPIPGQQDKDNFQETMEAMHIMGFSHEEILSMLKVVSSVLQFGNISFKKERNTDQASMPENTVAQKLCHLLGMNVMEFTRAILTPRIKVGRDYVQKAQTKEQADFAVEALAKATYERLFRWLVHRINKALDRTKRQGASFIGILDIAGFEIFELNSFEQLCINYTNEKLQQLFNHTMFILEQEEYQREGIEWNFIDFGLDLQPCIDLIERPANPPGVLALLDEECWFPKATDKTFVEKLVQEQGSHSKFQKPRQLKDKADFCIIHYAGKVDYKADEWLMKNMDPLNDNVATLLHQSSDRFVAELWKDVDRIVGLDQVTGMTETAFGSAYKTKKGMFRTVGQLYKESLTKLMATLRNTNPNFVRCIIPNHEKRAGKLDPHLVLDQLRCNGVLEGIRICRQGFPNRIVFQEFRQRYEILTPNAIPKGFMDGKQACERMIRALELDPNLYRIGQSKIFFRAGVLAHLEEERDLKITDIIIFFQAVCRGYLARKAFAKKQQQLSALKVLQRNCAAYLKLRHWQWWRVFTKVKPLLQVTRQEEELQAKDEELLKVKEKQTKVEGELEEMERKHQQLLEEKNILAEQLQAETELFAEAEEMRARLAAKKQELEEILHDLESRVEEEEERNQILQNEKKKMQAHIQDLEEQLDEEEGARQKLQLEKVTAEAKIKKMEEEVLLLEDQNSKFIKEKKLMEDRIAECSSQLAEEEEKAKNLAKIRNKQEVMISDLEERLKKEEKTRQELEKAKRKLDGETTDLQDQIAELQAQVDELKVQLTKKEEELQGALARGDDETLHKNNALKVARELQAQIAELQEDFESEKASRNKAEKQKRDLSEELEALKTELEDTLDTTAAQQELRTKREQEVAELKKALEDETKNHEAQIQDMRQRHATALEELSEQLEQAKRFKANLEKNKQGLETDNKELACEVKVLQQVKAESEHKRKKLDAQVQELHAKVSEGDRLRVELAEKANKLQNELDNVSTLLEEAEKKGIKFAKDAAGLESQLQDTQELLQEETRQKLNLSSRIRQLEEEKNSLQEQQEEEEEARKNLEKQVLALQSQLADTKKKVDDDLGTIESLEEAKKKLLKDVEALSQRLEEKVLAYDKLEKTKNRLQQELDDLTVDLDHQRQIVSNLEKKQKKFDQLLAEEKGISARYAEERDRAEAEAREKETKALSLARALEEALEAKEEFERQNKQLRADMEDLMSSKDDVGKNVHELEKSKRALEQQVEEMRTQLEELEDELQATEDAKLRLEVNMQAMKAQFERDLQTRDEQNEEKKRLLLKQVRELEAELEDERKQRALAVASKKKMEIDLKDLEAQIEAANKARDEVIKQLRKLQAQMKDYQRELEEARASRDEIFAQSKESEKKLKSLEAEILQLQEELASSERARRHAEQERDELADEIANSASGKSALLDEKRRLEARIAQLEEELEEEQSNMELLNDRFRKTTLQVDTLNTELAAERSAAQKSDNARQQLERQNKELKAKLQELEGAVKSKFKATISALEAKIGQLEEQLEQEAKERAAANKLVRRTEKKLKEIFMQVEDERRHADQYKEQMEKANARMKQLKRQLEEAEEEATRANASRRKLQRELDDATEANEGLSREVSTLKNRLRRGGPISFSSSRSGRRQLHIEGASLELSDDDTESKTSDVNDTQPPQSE
UniProt Q80TL4: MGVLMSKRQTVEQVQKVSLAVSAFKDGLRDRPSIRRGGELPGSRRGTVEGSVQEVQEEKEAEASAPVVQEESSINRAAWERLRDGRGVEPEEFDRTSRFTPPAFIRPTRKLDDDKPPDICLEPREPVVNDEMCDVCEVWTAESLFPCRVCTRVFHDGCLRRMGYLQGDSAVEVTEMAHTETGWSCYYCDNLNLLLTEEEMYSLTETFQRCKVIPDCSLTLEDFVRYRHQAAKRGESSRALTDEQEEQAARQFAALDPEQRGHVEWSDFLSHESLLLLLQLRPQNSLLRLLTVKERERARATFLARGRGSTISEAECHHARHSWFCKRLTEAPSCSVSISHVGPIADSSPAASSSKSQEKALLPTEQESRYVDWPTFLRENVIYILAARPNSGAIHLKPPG
UniProt P10605: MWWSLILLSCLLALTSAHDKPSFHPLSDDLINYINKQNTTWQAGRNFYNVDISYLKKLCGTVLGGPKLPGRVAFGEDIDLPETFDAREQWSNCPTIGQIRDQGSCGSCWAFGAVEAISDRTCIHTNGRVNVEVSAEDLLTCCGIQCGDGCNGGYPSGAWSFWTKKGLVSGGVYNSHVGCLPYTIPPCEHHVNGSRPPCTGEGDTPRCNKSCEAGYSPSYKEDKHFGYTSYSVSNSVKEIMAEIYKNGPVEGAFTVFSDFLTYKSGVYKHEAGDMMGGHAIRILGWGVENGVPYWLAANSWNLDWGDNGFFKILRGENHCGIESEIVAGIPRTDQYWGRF
UniProt Q76MZ3: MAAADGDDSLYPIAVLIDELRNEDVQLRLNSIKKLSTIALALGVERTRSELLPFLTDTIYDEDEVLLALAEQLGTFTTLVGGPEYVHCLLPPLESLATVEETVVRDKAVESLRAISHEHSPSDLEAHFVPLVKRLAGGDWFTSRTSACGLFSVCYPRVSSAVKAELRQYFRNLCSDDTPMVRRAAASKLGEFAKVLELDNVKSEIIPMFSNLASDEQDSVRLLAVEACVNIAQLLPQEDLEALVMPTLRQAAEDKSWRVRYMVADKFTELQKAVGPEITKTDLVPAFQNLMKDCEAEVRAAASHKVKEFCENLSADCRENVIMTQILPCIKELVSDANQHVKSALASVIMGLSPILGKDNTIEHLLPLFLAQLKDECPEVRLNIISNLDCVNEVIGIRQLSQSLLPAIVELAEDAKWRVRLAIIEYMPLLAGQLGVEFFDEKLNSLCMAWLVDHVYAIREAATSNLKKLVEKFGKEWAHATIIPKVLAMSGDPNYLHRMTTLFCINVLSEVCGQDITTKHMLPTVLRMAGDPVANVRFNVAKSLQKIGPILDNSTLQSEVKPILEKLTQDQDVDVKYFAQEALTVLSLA
UniProt Q8BMS1, residues 37-763: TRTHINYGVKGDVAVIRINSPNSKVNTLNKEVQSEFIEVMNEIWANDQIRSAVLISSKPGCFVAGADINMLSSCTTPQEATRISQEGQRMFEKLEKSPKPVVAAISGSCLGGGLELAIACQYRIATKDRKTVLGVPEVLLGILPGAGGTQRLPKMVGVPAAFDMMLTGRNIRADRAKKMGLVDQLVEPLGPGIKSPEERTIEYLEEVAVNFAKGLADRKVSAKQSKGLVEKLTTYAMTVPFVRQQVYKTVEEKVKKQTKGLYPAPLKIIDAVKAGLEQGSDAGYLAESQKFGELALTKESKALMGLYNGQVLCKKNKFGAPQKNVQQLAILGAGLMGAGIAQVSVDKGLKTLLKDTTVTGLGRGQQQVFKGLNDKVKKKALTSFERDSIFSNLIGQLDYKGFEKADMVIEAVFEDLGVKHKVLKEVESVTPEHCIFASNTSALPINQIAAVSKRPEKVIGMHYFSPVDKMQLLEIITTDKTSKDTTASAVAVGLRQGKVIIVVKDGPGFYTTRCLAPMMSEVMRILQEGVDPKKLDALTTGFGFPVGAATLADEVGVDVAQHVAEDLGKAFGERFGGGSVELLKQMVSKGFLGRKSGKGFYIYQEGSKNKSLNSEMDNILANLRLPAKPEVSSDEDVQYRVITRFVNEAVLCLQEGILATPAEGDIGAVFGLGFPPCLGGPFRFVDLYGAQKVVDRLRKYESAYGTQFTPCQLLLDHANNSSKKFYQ
UniProt Q8BUN9: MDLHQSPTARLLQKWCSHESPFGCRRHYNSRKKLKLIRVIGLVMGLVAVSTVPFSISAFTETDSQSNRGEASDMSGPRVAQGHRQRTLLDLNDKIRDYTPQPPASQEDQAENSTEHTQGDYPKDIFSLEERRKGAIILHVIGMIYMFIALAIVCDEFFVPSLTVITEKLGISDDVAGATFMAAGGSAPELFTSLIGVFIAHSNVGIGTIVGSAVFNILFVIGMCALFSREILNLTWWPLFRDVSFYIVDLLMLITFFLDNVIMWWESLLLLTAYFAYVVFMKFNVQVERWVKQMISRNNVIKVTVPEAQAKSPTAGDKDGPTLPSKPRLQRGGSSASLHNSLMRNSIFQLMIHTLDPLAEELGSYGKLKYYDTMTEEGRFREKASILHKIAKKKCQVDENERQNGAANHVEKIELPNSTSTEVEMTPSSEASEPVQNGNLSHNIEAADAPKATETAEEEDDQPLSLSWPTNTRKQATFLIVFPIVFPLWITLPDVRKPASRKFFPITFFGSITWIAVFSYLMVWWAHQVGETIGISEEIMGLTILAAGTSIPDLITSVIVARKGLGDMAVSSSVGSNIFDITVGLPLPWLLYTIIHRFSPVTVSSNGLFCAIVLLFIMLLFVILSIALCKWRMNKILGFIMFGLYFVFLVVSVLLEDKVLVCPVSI

B1: Long-chain specific acyl-CoA dehydrogenase, mitochondrial (protein, UniProt P51174 31-430)
chain: GAEARLETPSAKKLTDVGIRRIFSSEHDIFRESVRKFFQEEVIPHHTEWEKAGEVSREVWEKAGKQGLLGINIAEKHGGIGGDLLSTAVTWEEQAYSNCTGPGFSLHSDIVMPYIANYGTKEQIEKFIPQMTAGKCIGAIAMTEPGAGSDLQGVRTNAKRSGSDWILNGSKVFITNGWLSDLVIVVAVTNREARSPAHGISLFLVENGMKGFIKGRKLHKMGMKAQDTAELFFEDVRLPANALLGEENKGFYYLMQELPQERLLIAELAISACEFMFEETRNYVKQRKAFGKTVAHIQTVQHKLAELKTHICVTRAFVDSCLQLHETKRLDSGSASMAKYWASELQNSVAYECVQLHGGWGYMWEYPIAKAYVDARVQPIYGGTNEIMKELIARQIVSDS
B2: Complement C1q subcomponent subunit A (protein, UniProt P98086 23-245)
chain: EDVCRAPNGKDGAPGNPGRPGRPGLKGERGEPGAAGIRTGIRGFKGDPGESGPPGKPGNVGLPGPSGPLGDSGPQGLKGVKGNPGNIRDQPRPAFSAIRQNPMTLGNVVIFDKVLTNQESPYQNHTGRFICAVPGFYYFNFQVISKWDLCLFIKSSSGGQPRDSLSFSNTNNKGLFQVLAGGTVLQLRRGDEVWIEKDPAKGRIYQGTEADSIFSGFLIFPSA
B3: Coatomer subunit beta, also known as the coat protein complex 1 (protein, UniProt Q9JIF7 1-953)
chain: MTAAENVCYTLINVPMDSEPPSEISLKNDLEKGDVKSKTEALKKVIIMILNGEKLPGLLMTIIRFVLPLQDHTIKKLLLVFWEIVPKTTPDGRLLHEMILVCDAYRKDLQHPNEFIRGSTLRFLCKLKEAELLEPLMPAIRACLEHRHSYVRRNAVLAIYTIYRNFEHLIPDAPELIHDFLVNEKDASCKRNAFMMLIHADQDRALDYLSTCIDQVQTFGDILQLVIVELIYKVCHANPSERARFIRCIYNLLQSSSPAVKYEAAGTLVTLSSAPTAIKAAAQCYIDLIIKESDNNVKLIVLDRLVELKEHPAHERVLQDLVMDILRVLSTPDLEVRKKTLQLALDLVSSRNVEELVIVLKKEVIKTNNVSEHEDTDKYRQLLVRTLHSCSVRFPDMAANVIPVLMEFLSDSNEAAAADVLEFVREAIQRFDNLRMLIVEKMLEVFHAIKSVKIYRGALWILGEYCSTKEDIQSVMTEVRRSLGEIPIVESEIKKEAGELKPEEEITVGPVQKLVTEMGTYATQSALSSSRPTKKEEDRPPLRGFLLDGDFFVAASLATTLTKIALRYVALVQEKKKQNSFVAEAMLLMATILHLGKSSLPKKPITDDDVDRISLCLKVLSECSPLMNDIFNKECRQSLSQMLSAKLEEEKLSQKKESEKRNVTVQPDDPISFMQLTAKNEMNCKEDQFQLSLLAAMGNTQRKEAADPLASKLNKVTQLTGFSDPVYAEAYVHVNQYDIVLDVLVVNQTSDTLQNCTLELATLGDLKLVEKPSPLTLAPHDFANIKANVKVASTENGIIFGNIVYDVSGAASDRNCVVLSDIHIDIMDYIQPATCTDAEFRQMWAEFEWENKVTVNTNMTDLNDYLQHILKSTNMKCLTPEKALSGYCGFMAANLYARSIFGEDALANVSIEKPVHQGPDAAVTGHIRIRAKSQGMALSLGDKINLSQKKTSL
B4: Enoyl-CoA hydratase, mitochondrial isoform X2 (protein, UniProt Q8BH95 28-290)
chain: ASGANFQYIITEKKGKNSSVGLIQLNRPKALNALCNGLIEELNQALETFEQDPAVGAIVLTGGDKAFAAGADIKEMQNRTFQDCYSSKFLSHWDHITRVKKPVIAAVNGYALGGGCELAMMCDIIYAGEKAQFGQPEILLGTIPGAGGTQRLTRAVGKSLAMEMVLTGDRISAQDAKQAGLVSKIFPVEKLVEEAIQCAEKIASNSKIVVAMAKESVNAAFEMTLTEGNKLEKRLFYSTFATDDRREGMTAFVEKRKANFKDH

Biological target: T1, Retention in endoplasmic reticulum 1 (Rer1), mouse (mouse (endogenous in brain)) (UniProt Q9CQU3)
T1 sequence: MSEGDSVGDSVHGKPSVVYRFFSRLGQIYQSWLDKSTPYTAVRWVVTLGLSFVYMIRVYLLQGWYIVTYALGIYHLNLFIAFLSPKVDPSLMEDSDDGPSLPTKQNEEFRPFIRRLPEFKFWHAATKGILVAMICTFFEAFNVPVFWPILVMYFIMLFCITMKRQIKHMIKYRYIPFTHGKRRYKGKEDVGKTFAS
Experiment: affinity purification with mass spectrometry; anti-RER1 immunoprecipitation of hippocampus lysates (gentle RIPA lysis buffer) of PTZ-induced Nedd4-2+/- and wild-type mice, LC-MS/MS; IgG-precipitated proteins subtracted; proteins present in all four replicates of a group defined as positive

| Molecule | binding |
| --- | --- |
| 26S proteasome non-ATPase regulatory subunit 5 (from UniProt Q8BJY1 1-504) | binds |
| Hspa9 (from UniProt P38647 47-679) | binds |
| Kelch repeat and BTB domain-containing protein 11 (from UniProt Q8BNW9 1-633) | binds |
| Myosin-10 (from UniProt Q61879 1-1976) | binds |
| Neurobeachin (from UniProt Q9EPN1 1-2936) | binds |
| C-terminal-binding protein 1 (from UniProt O88712 1-441) | binds |
| Adenosylhomocysteinase (from UniProt Q80SW1 1-530) | binds |
| Synapsin I (from UniProt O88935 1-706) | binds |
| Dnaja1 (from UniProt P63037 1-397) | binds |
| Serine/arginine repetitive matrix protein 2 (from UniProt Q8BTI8 1-2703) | binds |
| Regulatory-associated protein of mTOR (from UniProt Q8K4Q0 1-1335) | binds |
| PHD finger protein 24 isoform X1 (from UniProt Q80TL4 1-400) | binds |
| Cathepsin B (from UniProt P10605) | binds |
| ATP synthase membrane subunit f (mouse (endogenous in hippocampus)) | binds |
| Serine/threonine-protein phosphatase 2A 65 kDa regulatory subunit A alpha isoform (from UniProt Q76MZ3 1-589) | binds |
| Kinesin-like protein KIF1A (from UniProt P33173 1-1695) | binds |
| T-complex protein 1 subunit zeta (from UniProt P80317 1-531) | binds |
| Trifunctional enzyme subunit alpha, mitochondrial (from UniProt Q8BMS1 37-763) | binds |
| T-complex protein 1 subunit epsilon (from UniProt P80316 1-541) | binds |
| Microtubule-associated protein (from UniProt P27546 1-1125) | binds |
| Sodium/potassium/calcium exchanger 2 isoform X4 (from UniProt Q8BUN9 1-666) | binds |
| COP9 signalosome complex subunit 2 (from UniProt P61202 1-443) | binds |
| Pdia3 (from UniProt P27773 25-505) | binds |
| RNA-binding protein EWS isoform X4 (from UniProt Q61545 1-655) | binds |
| Brevican core protein isoform X3 (from UniProt Q61361 23-883) | binds |
| B1 | binds |
| B2 | binds |
| B3 | binds |
| B4 | binds |

Results are given in words; binding and its absence hold for the method and conditions named. In cells and extracts the contact can be indirect. Here binding means that the protein was enriched with, or labelled near, the bait; the list need not be complete.
